Several values for one entry are separate records, joined by “and”; a condition that tells them apart may be missing. Equal values may be shown once. Hit rate of the full screen: of about 400,000 compounds, about 13,000 (3.2%) were called active. The shares of active, inactive and inconclusive entries below differ from those in the screen. The call rests on the fitted dose curve; in most records, active means well fitted cell-killing curve with a large enough effect; inconclusive means small, poorly fitted or top-dose-only effect, or effect the other way; inactive means flat fitted curve, though single readings scatter. Potencies beside an inconclusive call are fits to weak or partial responses and may not hold up.
assay: qHTS assay for MDR1-selective chemotherapeutics: Primary screen using the drug-selected MDR subline cells KB-V1; conditions: KB-V1 MDR cells viability, CellTiter-Glo, 72 h; series mostly up to 46.1 µM; further: nearly all actives have a fitted effect of over 60% in size
Method in brief: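 Readout: CellTiter-Glo luminescence, 10 min after addition. Cells: KB-V1 MDR subline, 72 h at 37 degrees C with compound. Analysis: corrected, normalized data fitted to concentration-effect curves.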
Potency means the concentration at half of the fitted maximal effect.

Compound	Potency
Cc1cccc(N(CC(=O)NCc2ccc3c(c2)OCO3)C(=O)CCC(=O)Nc2ccccn2)c1	inconclusive: 11.6 µM [cytotoxic, partial curve]
COc1cccc(C2C(C(=O)Nc3ccccc3)=C(C)Nc3nc(-c4ccccc4)nn32)c1OC (stereo unspecified)	inconclusive: 29.1 µM [rising, partial curve, poor fit]
O=[N+]([O-])c1cc(Br)c(O)c(/C=N/Nc2nc3ccccc3s2)c1	inconclusive: 32.6 µM [cytotoxic, single point]
COc1ccccc1N(CC(=O)NC1CCCCC1)C(=O)CCC(=O)Nc1ccccn1	inconclusive: 18.4 µM [cytotoxic, partial curve]
CC1(C)C2CCC1(C)C(NC(=O)COC(=O)c1ccc(S(C)(=O)=O)c([N+](=O)[O-])c1)C2 (stereo unspecified)	inconclusive: 29.1 µM [cytotoxic, single point]
COc1ccc(N2C(=O)c3ccc(C(=O)Nc4ccccc4O)cc3C2=O)cc1	inconclusive: 29.1 µM [rising, single point]
CC1CCN(c2nc3ccc(C(=O)N4CCN(Cc5ccc6c(c5)OCO6)CC4)cc3s2)CC1	inactive
CCCn1c(=S)[nH]c2cc(C(=O)N3CCc4ccccc43)ccc2c1=O	active: 2.31 µM
Cc1ccc2[nH]cc(C(=O)CN3CCN(c4ccccc4F)CC3)c2c1	active: 10.3 µM
Cc1ccc(C(=O)n2nc(C)c(S(=O)(=O)N3CCCCCC3)c2C)cc1	inactive
COc1ccc(CNc2nc3c(c(=O)n(C)c(=O)n3C)n2Cc2ccccc2Cl)cc1	inactive
Cc1ccc(C)c(CN2CCC(CNC(=O)c3cc4ccc5cccnc5c4[nH]3)CC2)c1	inconclusive: 25.9 µM [cytotoxic, single point]
O=C(Nc1ncn[nH]1)C(F)(F)C(F)F	inconclusive: 20.6 µM [rising, single point]
CC1(Oc2ccccc2-c2ccno2)CCN(Cc2csc3ccccc23)C1 (stereo unspecified)	inconclusive: 11.6 µM [cytotoxic, partial curve, poor fit]
Cc1cccc(-c2noc(-c3ccc(N4CCN(C)CC4)c([N+](=O)[O-])c3)n2)c1	inactive
COc1ccc(-c2noc(-c3ccccc3-c3ccccc3)n2)cc1	inconclusive: 18.4 µM [cytotoxic, partial curve, poor fit]
O=C(CSc1ccc(-c2ccccn2)nn1)NC1CCCCC1	inconclusive: 16.4 µM [cytotoxic, single point]
O=C(N/N=C/c1cc(Br)c(Br)o1)c1cccnc1	inconclusive: 23.1 µM [cytotoxic, single point]
COc1nc(-c2ccc(C)cc2)ccc1-c1noc(-c2ccco2)n1	inconclusive: 23.1 µM [cytotoxic, single point]
O=C(Nc1ccc(F)cc1F)N1CCCC(c2nc(-c3ccc(F)cc3)no2)C1 (stereo unspecified)	inactive
O=C(c1cccnc1)N1CCN(S(=O)(=O)c2ccc3ccccc3c2)CC1	active: 18.4 µM
N#Cc1ccc(OCC(=O)Nc2ccccc2NS(=O)(=O)c2cccs2)cc1	inconclusive: 20.6 µM [cytotoxic, single point]
CC(=O)N1CCN(C(C(=O)Nc2c(C)cccc2C)c2ccccc2OC(F)(F)F)CC1 (stereo unspecified)	inconclusive: 20.6 µM [cytotoxic, partial curve, poor fit]
CC(C)Nc1ncnc2c1ncn2[C@H]1CN(Cc2ccc(-c3ccccc3)cc2)C[C@@H](CO)O1	inactive

A draw from above in order of molar mass, rising.
Compound	Potency
Cc1ccc(C(=O)n2nc(C)c(S(=O)(=O)N3CCCCCC3)c2C)cc1	inactive
Cc1cccc(-c2noc(-c3ccc(N4CCN(C)CC4)c([N+](=O)[O-])c3)n2)c1	inactive
COc1ccc(N2C(=O)c3ccc(C(=O)Nc4ccccc4O)cc3C2=O)cc1	inconclusive: 29.1 µM [rising, single point]

(next part)

Compound	Potency
O=C(Nc1cccc(S(=O)(=O)N2CCOCC2)c1)c1ccccn1	inactive
CCOC(=O)N1CCN(c2c(NCC3CCN(Cc4cccc(C)c4)CC3)c(=O)c2=O)CC1	inconclusive: 29.1 µM [rising, single point]
COc1ccc(-c2noc(-c3ccc(N4CCCCC4C)c([N+](=O)[O-])c3)n2)cc1OC (stereo unspecified)	inactive
O=c1c2ccccc2sn1-c1ccc(F)cc1	inactive
Cc1ccc(NC(=O)c2ccc(NCCc3ccccc3)c([N+](=O)[O-])c2)cc1F	inactive
CC(C)(C)OC(=O)N1CCC(c2nnc(SCc3ccccc3)o2)CC1	inconclusive: 13 µM [cytotoxic, partial curve]
NS(=O)(=O)c1ccc(N/N=C/c2cn(-c3ccccc3)nc2-c2cccs2)cc1	inconclusive: 29.1 µM [cytotoxic, single point]
COC(=O)Cn1c(=O)c(C(=O)CCl)c(N)n(Cc2ccccc2)c1=O	inconclusive: 23.1 µM [cytotoxic, single point]
CCOC(=O)c1ccccc1NC(=O)c1ccc(Cl)c(S(=O)(=O)N2CCOCC2)c1	active: 7.31 µM
Cn1c(CSCc2ccccc2Cl)nnc1SCC(=O)Nc1nccs1	active: 20.6 µM
Cc1csc(NC(C)c2nc3cc(C(F)(F)F)ccc3n2CCOCCO)n1 (stereo unspecified)	inconclusive: 11.6 µM [cytotoxic, partial curve]
CCOc1ccc(S(=O)(=O)NN2Cc3ccccc3C2=N)cc1	inactive
Cc1cc2c(o1)CC(C)(C)CC2=O	inconclusive: 29.1 µM [rising, single point]
CC(C)(C)[C@H]1COC(=O)CCC/C=C/C[C@H](CC(=O)NCCO)C(=O)N1	inactive
O=C1CC(c2ccc3c(c2)OCCO3)Oc2ccccc21 (stereo unspecified)	inactive
Cc1ccc(-c2nc3ccc(Cl)cn3c2CC(C)(C)C)cc1	inactive
CCCNc1c(NC(=O)c2ccc3c(c2)OCO3)c(=O)oc2ccccc12	inactive
CC1CCN(c2ccc(NC(=O)c3ccc([N+](=O)[O-])o3)cc2)CC1	active: 10.3 µM
COc1ccc(Nc2ccnc3ccccc23)cc1	inconclusive: 23.1 µM [cytotoxic, partial curve, poor fit]
CC(C)C[C@@H](CO)N1CCN(Cc2cccc(C#N)c2)CCC1=O	inactive
CC(C)CN1C(=O)c2ccc(NC(=O)c3ccccc3F)cc2C1=O	inactive
CCn1nc(C(=O)NCC(c2cccs2)N2CCOCC2)c2ccccc2c1=O (stereo unspecified)	inconclusive: 11.6 µM [cytotoxic, partial curve, poor fit]
CCOc1ccc(CCNC(=O)COC(=O)c2[nH]c(C)c(C(C)=O)c2C)cc1OCC	inconclusive: 14.6 µM [cytotoxic, partial curve]
COc1ccc(C(=O)NCC(=O)N/N=C(\C)c2ccco2)cc1OC	inconclusive: 25.9 µM [rising, single point]

Quoted from the listing:
In Potency, `Cc1csc(NC(C)c2nc3cc(C(F)(F)F)ccc3n2CCOCCO)n1` (stereo unspecified) shows inconclusive: 11.6 µM [cytotoxic, partial curve]
In Potency, `O=C(N/N=C/c1cc(Br)c(Br)o1)c1cccnc1` shows inconclusive: 23.1 µM [cytotoxic, single point]
In Potency, `O=C(Nc1cccc(S(=O)(=O)N2CCOCC2)c1)c1ccccn1` shows inactive

Further compounds.

Compound	Potency
O=C(NCc1nnnn1-c1ccc(F)cc1)c1ccc([N+](=O)[O-])o1	inconclusive: 14.6 µM [cytotoxic, partial curve, poor fit]
CC1(C)CCN2CCC(C)(C)c3c(O)ccc1c32	inactive
Cc1cc(C)c2c(=O)cc(C(=O)Nc3sc4c(c3C(=O)NCc3cccnc3)CCCC4)oc2c1	inactive
COC(=O)c1c(-c2cccs2)csc1NC(=O)CSc1ncnc2sc(C)c(C)c12	active: 18.4 µM
Cn1c(=O)[nH]c(=O)c2c1nc(CN1CCN(c3cccc(Cl)c3)CC1)n2CCN1CCOCC1	inconclusive: 11.6 µM [cytotoxic, partial curve, poor fit]
CC(=O)c1c(N2CCOCC2)nc2ccc(Br)cc2c1-c1ccccc1	inconclusive: 29.1 µM [cytotoxic, single point]
C=CCn1c(=S)[nH]c2ccccc2c1=O	inconclusive: 29.1 µM [cytotoxic, single point]
CCC1=C(c2ccc(C)cc2)S(=O)(=O)N=C1N1CCC(C(=O)NCCCN2CCCCC2)CC1	inconclusive: 29.1 µM [rising, single point]
COc1ccccc1N1CCN(C(=O)COc2cccc3ccccc23)CC1	inconclusive: 18.4 µM [cytotoxic, partial curve, poor fit]
Cc1nn(-c2cccc(Cl)c2)nc1C(=O)Nc1cccc(C(=O)NC2CC2)c1	inconclusive: 20.6 µM [cytotoxic, partial curve, poor fit]
CC(C)(C)NC(=S)NCCc1ccccc1	inactive
O=C(Nc1ccccn1)c1ccc(S(=O)(=O)c2ccc(Cl)cc2)cc1	active: 7.31 µM
CC(C)(C)c1cc(CN2CCCC(O)C2)c(O)c(C(C)(C)C)c1 (stereo unspecified)	active: 16.4 µM
Cc1cc(N=Cc2c(O)n(-c3cccc(C(F)(F)F)c3)c(=O)c3ccccc23)no1	inactive
COc1cc(Br)c(C(C)NC(=O)c2ccc(C)cc2)cc1OC (stereo unspecified)	inconclusive: 29.1 µM [cytotoxic, single point]
Cn1c(SCc2cccc([N+](=O)[O-])c2)nc2ccccc2c1=O	active: 2.59 µM
CCOc1ccc(-n2c(SCC(=O)Nc3ccc(F)cc3)nc3c([nH]c4ccccc43)c2=O)cc1	inconclusive: 29.1 µM [rising, single point]
CC(C)N(Cc1nc(-c2ccccc2)no1)C(=O)CN(C)S(=O)(=O)c1ccc(Br)cc1	inconclusive: 8.2 µM [cytotoxic, partial curve]
O=C(c1cc(-c2cccc(O)c2)on1)N1CCCCC1	inactive
COC(=O)c1cc(S(=O)(=O)NCC2CCN(Cc3ccc(C)cc3)CC2)c[nH]1	inconclusive: 16.4 µM [rising, single point] and inconclusive: 29.1 µM [rising, single point]
COC(=O)CCC1(C(N)=O)CCC(=O)c2ccccc21 (stereo unspecified)	inactive
COc1cc(NC(=O)Cc2c(C(=O)O)c(C)cn2C)cc(OC)c1	inconclusive: 18.4 µM [rising, single point]
COc1ccc(NC(=O)CSc2ccc(-c3ccccn3)nn2)cc1OC	inconclusive: 8.2 µM [cytotoxic, partial curve, poor fit]

From PubChem BioAssay AID1347076 (National Center for Advancing Translational Sciences (NCATS), 2019)
